Legend:
hOAT3 = biological target: T1, hOAT3 (Homo sapiens, UniProt Q8TCC7, D366H/K271E); assay: Inhibition of 3H-estrone sulfate uptake in oocyte injected with hOAT3 cRNA; format: cell-based; set-up: cRNA (RNA complementary to cDNA) was prepared in vitro from the plasmid comprising the hOAT3 recovered above; expressed in transfected cells; host or cells: Xenopus oocytes injected with hOAT3 cRNA; settings: 50 nM 3H-estrone sulfate; non-radiolabeled compound at 500 μM or the concentration shown in FIG. 19; one hour
T1 sequence (Q8TCC7 1-542 K271E/D366H): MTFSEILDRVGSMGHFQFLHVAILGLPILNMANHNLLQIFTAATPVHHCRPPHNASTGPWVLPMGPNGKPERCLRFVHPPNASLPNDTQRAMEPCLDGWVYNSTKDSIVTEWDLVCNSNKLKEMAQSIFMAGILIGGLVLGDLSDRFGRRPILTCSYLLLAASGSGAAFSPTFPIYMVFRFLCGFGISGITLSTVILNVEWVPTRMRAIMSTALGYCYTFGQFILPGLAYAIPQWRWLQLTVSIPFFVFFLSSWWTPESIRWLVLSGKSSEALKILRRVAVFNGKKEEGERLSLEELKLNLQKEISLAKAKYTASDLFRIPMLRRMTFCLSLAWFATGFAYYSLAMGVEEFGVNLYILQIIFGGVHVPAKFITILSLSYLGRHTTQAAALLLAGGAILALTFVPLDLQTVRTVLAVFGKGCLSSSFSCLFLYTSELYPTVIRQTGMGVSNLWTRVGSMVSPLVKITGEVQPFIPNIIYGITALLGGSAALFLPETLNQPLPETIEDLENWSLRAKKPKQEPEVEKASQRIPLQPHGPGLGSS

rat OAT3 (rk1411) = biological target: T2, rat OAT3 (rk1411) (Rattus norvegicus, UniProt Q9R1U7); assay: Inhibition of 3H-estrone sulfate uptake in oocyte injected with rk1411 cRNA; format: cell-based; settings: 1 mM unlabeled compound; Xenopus oocyte; FIG. 3
T2 construct: cRNA (RNA complementary to cDNA) was prepared in vitro from the plasmid carrying the clone (rk1411); expressed in transfected cells; host or cells: Xenopus oocytes injected with rk1411 cRNA
T2 sequence (Q9R1U7 1-536): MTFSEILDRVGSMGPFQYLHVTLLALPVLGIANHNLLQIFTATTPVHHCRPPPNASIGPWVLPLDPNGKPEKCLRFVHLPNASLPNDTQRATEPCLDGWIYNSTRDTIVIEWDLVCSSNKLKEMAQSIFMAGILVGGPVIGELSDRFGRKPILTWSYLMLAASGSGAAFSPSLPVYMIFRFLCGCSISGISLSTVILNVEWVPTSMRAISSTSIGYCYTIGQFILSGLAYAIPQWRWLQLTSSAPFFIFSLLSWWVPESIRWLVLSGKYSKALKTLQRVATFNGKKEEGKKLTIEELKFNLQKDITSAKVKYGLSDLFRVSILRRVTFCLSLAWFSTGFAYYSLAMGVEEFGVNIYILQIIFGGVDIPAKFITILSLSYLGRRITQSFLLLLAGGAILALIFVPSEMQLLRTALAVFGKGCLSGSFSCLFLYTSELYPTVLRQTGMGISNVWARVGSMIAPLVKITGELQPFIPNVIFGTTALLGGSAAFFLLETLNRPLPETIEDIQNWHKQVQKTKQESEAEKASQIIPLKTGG

inhibition of the transport of 3H-estrone sulfate with hOAT3 (hOAT3): significantly inhibited | inhibition of 3H-estrone sulfate transport with rk1411 (rat OAT3 (rk1411)): significantly inhibited
Structure (SMILES): NS(=O)(=O)c1cc(C(=O)O)c(NCc2ccco2)cc1Cl [furosemide]

Source: US8039586B1, “Cerebral organic anion transporter and its gene” (J-Pharma Co., Ltd., priority 1998, dated 2011)
